Results are given in words; binding and its absence hold for the method and conditions named. Binding can be weak; no strength is given. Sequences can lack the tags named with a protein.
Molecular target: T1, … TESTA GLABRA 1 (GAL4-BD fusion) (Arabidopsis thaliana (Col-0 cDNA)) (UniProt Q9XGN1)
T1 sequence: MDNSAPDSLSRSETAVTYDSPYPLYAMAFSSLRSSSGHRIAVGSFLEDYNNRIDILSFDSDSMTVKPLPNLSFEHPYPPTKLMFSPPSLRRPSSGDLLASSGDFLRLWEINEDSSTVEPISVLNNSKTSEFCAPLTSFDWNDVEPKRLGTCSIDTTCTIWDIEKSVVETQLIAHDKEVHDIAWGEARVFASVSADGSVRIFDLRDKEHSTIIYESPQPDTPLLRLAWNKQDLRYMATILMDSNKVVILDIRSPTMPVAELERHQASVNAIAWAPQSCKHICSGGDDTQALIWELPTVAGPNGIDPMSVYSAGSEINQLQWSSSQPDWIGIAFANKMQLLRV
Assay: two-hybrid

For “PRR3 (two-hybrid fusion) (Arabidopsis thaliana)”, the binding was “binds”.

Reference: paper doi:10.1101/2025.02.04.636234
